Experimental data: PubChem BioAssay AID1259308 (NCATS, 2017)
The deposit covers about 59,000 reagents; shown is an unselected part. Over the whole deposit, about 1,510 (2.6%) got an active call. 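Calls use total luciferase alone and ignore viability, so some active siRNAs may act by altering cell number.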 A number with no mark means an inactive call. Not all columns of the deposit are shown.

Test: 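Candidate targets for better recombinant protein yield in mammalian cells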 (primary screen)
Cell system: human HEK293 embryonic kidney cells stably expressing firefly luciferase (HEK-CMV-Luc2-Hygro)
Knock-down reagent: single siRNA against human genes, 0.8 pmol siRNA per well
Duration: 72 h
Measurement: 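Luciferase light (ONE-Glo) measured on one replicate plate set and viability (CellTiter-Glo) on the other, scaled to a negative control siRNA, with robust z-scores and luciferase per cell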
Reading the numbers: total luciferase, z-score: higher = more reporter protein produced
Call rule: 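An siRNA counts as active if its total luciferase robust z-score exceeds 3; genes with two or more such siRNAs out of three were retested with fresh siRNAs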
Calls: active = raised luciferase; inactive = no rise

FAM90A20 (GeneID 728430) [SID160726687] — total luciferase, z-score: -0.358
FAM90A20 (GeneID 728430) [SID160726689] — total luciferase, z-score: -0.255
FAM90A20 (GeneID 728430) [SID160771795] — total luciferase, z-score: 0.856
ASXL1 (GeneID 171023) [SID160760495] — total luciferase, z-score: -0.743
ASXL1 (GeneID 171023) [SID160760496] — total luciferase, z-score: -0.208
ASXL1 (GeneID 171023) [SID160760497] — total luciferase, z-score: 1.06
MCM3 (GeneID 4172) [SID160777051] — total luciferase, z-score: -0.573
MCM3 (GeneID 4172) [SID160777052] — total luciferase, z-score: 0.563
MCM3 (GeneID 4172) [SID160777053] — total luciferase, z-score: 3.81 (active)
HS6ST2 (GeneID 90161) [SID160753584] — total luciferase, z-score: 1.95
HS6ST2 (GeneID 90161) [SID160753585] — total luciferase, z-score: -1.68
HS6ST2 (GeneID 90161) [SID160753586] — total luciferase, z-score: 0.0926
DSTNP4 (GeneID 729454) [SID160772768] — total luciferase, z-score: 0.636
DSTNP4 (GeneID 729454) [SID160772769] — total luciferase, z-score: 1.24
DSTNP4 (GeneID 729454) [SID160772770] — total luciferase, z-score: -0.473
GPCPD1 (GeneID 56261) [SID160733641] — total luciferase, z-score: -1.28
GPCPD1 (GeneID 56261) [SID160744990] — total luciferase, z-score: -0.423
GPCPD1 (GeneID 56261) [SID160744991] — total luciferase, z-score: 1.76
RPL7P23 (GeneID 648000) [SID160726090] — total luciferase, z-score: -2.46
RPL7P23 (GeneID 648000) [SID160726091] — total luciferase, z-score: -3.38
RPL7P23 (GeneID 648000) [SID160770283] — total luciferase, z-score: -1.85
OR8B8 (GeneID 26493) [SID160737990] — total luciferase, z-score: 1.7
OR8B8 (GeneID 26493) [SID160737991] — total luciferase, z-score: -0.146
OR8B8 (GeneID 26493) [SID160737992] — total luciferase, z-score: -0.346
ACKR1 (GeneID 2532) [SID160723772] — total luciferase, z-score: -0.377
ACKR1 (GeneID 2532) [SID160767962] — total luciferase, z-score: -0.787
ACKR1 (GeneID 2532) [SID160767971] — total luciferase, z-score: -0.575
CALHM4 (GeneID 221301) [SID160732704] — total luciferase, z-score: -2
CALHM4 (GeneID 221301) [SID160761647] — total luciferase, z-score: -0.156
CALHM4 (GeneID 221301) [SID160761648] — total luciferase, z-score: -1.12
RNF17 (GeneID 56163) [SID160744915] — total luciferase, z-score: 0.148
RNF17 (GeneID 56163) [SID160744916] — total luciferase, z-score: 0.59
RNF17 (GeneID 56163) [SID160744917] — total luciferase, z-score: -1.75

As entered above:
Under “total luciferase, z-score”, ACKR1 (GeneID 2532) [SID160723772] reads -0.377
Under “total luciferase, z-score”, DSTNP4 (GeneID 729454) [SID160772768] is entered as 0.636
DSTNP4 (GeneID 729454) [SID160772769], total luciferase, z-score = 1.24
Value for FAM90A20 (GeneID 728430) [SID160726687] under “total luciferase, z-score”: -0.358
GPCPD1 (GeneID 56261) [SID160733641], total luciferase, z-score: -1.28
